Source: paper PMC11126613
No constants are given. Whether binding was seen depends on the method and setting. In cells and extracts the contact can be indirect. Some results given as binding are weak or reduced against the parent protein; the word gives no strength.

Chains of the proteins cited; added tags and fusions are not shown. Residues count along the entry.
UniProt O35375, residues 21-931: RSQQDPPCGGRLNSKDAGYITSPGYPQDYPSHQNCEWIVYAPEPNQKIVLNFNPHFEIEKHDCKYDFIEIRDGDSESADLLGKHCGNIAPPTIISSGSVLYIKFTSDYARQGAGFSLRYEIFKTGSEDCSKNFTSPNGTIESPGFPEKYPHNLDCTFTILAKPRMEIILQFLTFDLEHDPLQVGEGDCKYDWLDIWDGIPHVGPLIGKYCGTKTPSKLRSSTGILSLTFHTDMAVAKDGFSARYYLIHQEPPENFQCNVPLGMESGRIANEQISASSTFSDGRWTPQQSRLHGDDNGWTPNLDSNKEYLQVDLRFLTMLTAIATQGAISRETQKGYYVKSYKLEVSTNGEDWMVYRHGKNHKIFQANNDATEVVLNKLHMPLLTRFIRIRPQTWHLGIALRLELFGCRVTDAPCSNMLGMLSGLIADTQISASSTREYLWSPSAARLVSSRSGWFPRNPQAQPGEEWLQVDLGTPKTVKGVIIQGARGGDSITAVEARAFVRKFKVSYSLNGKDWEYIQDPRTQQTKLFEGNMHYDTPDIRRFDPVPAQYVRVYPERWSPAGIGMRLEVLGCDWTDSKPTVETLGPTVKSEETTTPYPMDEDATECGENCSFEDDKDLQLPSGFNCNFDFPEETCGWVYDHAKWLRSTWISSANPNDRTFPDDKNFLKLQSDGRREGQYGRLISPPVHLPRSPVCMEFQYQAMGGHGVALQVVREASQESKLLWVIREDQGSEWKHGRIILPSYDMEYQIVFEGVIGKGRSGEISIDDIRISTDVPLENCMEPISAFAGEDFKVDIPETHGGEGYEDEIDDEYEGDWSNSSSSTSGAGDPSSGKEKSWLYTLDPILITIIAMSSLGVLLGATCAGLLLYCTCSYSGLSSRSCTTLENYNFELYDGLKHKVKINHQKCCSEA
UniProt P34152: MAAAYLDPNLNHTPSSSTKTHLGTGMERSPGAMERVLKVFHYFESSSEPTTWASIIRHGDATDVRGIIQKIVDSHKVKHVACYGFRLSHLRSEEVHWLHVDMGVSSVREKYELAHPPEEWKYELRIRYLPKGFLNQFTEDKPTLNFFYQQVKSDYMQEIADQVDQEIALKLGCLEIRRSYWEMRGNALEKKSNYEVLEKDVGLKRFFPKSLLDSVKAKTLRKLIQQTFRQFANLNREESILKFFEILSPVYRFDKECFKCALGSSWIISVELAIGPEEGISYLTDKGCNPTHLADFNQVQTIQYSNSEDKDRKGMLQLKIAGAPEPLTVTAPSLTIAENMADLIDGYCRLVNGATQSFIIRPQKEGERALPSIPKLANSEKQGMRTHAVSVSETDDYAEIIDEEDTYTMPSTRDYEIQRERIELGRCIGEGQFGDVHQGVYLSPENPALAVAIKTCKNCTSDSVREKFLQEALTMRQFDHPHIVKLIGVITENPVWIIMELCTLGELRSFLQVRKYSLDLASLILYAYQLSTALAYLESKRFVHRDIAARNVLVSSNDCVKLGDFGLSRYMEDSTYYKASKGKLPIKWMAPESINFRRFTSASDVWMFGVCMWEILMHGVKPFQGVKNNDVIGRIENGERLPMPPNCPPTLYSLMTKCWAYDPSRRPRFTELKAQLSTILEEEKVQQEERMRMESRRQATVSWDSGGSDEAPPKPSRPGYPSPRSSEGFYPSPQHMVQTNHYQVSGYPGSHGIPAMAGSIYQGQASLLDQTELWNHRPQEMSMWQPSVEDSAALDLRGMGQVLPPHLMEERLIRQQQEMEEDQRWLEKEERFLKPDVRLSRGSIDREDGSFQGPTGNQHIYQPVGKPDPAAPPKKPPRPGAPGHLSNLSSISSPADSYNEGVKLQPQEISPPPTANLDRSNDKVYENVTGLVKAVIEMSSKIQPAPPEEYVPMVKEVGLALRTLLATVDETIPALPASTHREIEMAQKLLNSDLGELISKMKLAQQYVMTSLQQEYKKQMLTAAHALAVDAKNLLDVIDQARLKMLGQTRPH

Tests used:
[1] = biological target: neuropilin 2 (mouse (endogenous in mouse lung microvascular ECs)) (UniProt O35375); experiment: condition: only siNRP1 ECs pre-treated with 2 µM PF562271; co-IP; immunoprecipitation of NRP2 from siNRP1 EC lysates after pre-treatment with 2 µM PF562271; Western blot with anti-p120RasGAP
[2] = biological target: focal adhesion kinase (mouse (endogenous in mouse lung microvascular ECs)) (UniProt P34152); experiment: condition: only ECs pre-treated with 2 µM PF562271 prior to lysis; co-IP; as the co-IP of endogenous proteins from EC lysates, but ECs pre-treated with 2 µM PF562271 (FAK inhibitor) prior to lysis; Western blot with anti-p120RasGAP
[3] = biological target: focal adhesion kinase (mouse (endogenous in mouse lung microvascular ECs)) (UniProt P34152); experiment: co-IP; endogenous proteins from mouse microvascular EC lysates (25 mM Tris-HCl pH 7.4, 100 mM NaCl, 2 mM MgCl2, 1 mM Na3VO4, 0.5 mM EGTA, 1% Triton X-100, 5% glycerol), 800 µg, Dynabeads Protein G with primary antibody at 4 °C, Western blot; Ctrl or siRNA-depleted ECs; ± 10 min pre-treatment with primaquine (0.3 mM)
[4] = biological target: neuropilin 2 (mouse (endogenous in mouse lung microvascular ECs)) (UniProt O35375); experiment: as above

B1: p120RasGAP (enzyme, UniProt E9PYG6 1-1038)
chain: MMAAEAGSEEGGPATAGPGGGAATGSSAYSAACRVKLPAALPVAAAPCPGLADADLVAALGGGAASGSGFLGTGPVAGVLGGAALTGSAAAGVAGAAAAGPAGDVAFTKGTLSLPAETLGPGGGFPPLPPPPQLPPLGSGLGTVDEGDSLDGPEYEEEEVAIPLTAPPTNQWYHGKLDRTIAEERLRQAGKSGSYLIRESDRRPGSFVLSFLSQTNVVNHFRIIAMCGDYYIGGRRFSSLSDLIGYYSHVSCLLKGEKLLYPVAPPEPVEDRRRVRAILPYTKVPDTDEISFLKGDMFIVHNELEDGWMWVTNLRTDEQGLIVEDLVEEVGREEDPHEGKIWFHGKISKQEAYNLLMTVGQVCSFLVRPSDNTPGDYSLYFRTNENIQRFKICPTPNNQFMMGGRYYNSIGDIIDHYRKEQIVEGYYLKEPVPMQDQGQVLNDTVDGKEIYNTIRRKTKDAFYKNIVKKGYLLKKGKGKRWKNLYFILEGSDAQLIYFESEKRATKPKGLIDLSVCSVYVVHDSLFGRPNCFQIVVQHFSEEHYIFYFAGETPEQAEDWMKGLQAFCSLRKSSPGTSNKRLRQVSSLVLHIEEAHKLPVKHFTNPYCNIYLNSVQVAKTHAREGQNPVWSEEFVFDDLPPDINRFEITLSNKTKKSKDPDILFMRCQLSRLQKGHATDEWFLLSSHIPLKGIEPGSLRVRARYSMEKIMPEEEYSEFKELILQKELHVVYALSHVCGQDRTLLASILLKIFLHEKLESLLLCTLNDREISMEDEATTLFRATTLASTLMEQYMKATATQFVHHALKDSILKIMESKQSCELSPSKLEKNEDVNTNLAHLLSILSELVEKIFMASEILPPTLRYIYGCLQKSVQHKWPTNNTMRTRVVSGFVFLRLICPAILNPRMFNIISDSPSPIAARTLTLVAKSVQNLANLVEFGAKEPYMEGVNPFIKSNKHRMIMFLDELGNVPELPDTTEHSRTDLSRDLAALHEICVAHSDELRTLSNERGVQQHVLKKLLAITELLQQKQNQYTKTNDIR
binding [1]: no binding
binding [2]: no binding
binding [3]: binds
binding [4]: binds
